Binding data for 5 substances are collected here from article PMC8854732.

Sequences of proteins named here, by UniProt entry; tags and fusion partners are left off. A change or cut given only in a name is not applied to a line headed by its entry.
UniProt Q9Y294: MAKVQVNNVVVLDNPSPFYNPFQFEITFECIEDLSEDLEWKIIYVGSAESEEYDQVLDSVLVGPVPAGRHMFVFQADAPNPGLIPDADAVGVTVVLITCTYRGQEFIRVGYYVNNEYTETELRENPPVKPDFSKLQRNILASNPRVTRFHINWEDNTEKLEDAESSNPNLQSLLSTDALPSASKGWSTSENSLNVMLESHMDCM
UniProt Q9NVP2: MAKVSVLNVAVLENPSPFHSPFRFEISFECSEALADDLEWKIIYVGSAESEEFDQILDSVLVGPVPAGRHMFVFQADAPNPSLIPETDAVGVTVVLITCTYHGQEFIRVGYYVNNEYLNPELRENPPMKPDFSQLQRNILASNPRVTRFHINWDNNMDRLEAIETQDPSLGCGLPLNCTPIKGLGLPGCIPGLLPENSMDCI
UniProt P54198: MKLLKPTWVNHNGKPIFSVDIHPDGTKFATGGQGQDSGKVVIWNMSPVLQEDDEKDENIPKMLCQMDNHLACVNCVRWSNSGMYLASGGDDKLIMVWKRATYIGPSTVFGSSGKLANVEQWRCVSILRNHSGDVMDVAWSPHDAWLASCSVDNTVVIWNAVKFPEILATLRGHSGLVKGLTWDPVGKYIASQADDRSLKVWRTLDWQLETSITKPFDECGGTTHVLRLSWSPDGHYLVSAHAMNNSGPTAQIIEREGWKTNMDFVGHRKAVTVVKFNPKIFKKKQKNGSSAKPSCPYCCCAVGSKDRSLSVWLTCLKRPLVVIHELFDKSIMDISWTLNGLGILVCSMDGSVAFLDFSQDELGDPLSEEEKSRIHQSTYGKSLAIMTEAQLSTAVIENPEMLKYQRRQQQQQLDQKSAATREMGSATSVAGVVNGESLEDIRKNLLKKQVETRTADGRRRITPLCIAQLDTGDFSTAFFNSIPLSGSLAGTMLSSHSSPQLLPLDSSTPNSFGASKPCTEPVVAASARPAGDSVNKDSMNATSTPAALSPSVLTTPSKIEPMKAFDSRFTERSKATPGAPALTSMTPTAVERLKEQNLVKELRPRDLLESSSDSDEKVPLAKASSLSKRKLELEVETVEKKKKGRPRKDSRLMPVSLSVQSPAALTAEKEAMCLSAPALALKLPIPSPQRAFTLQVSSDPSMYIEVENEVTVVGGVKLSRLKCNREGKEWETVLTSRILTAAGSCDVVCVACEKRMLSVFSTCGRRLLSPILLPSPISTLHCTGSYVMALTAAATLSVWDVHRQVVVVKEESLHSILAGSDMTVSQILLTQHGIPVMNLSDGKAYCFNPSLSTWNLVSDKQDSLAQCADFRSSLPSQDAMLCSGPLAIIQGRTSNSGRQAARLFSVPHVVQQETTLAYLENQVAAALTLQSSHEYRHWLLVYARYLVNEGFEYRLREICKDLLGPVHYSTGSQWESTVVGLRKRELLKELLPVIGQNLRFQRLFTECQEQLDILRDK

These are yes or no findings as the source states them, for the method shown. In cells and extracts the contact can be indirect. Some results given as binding are weak or reduced against the parent protein; the word gives no strength. For some assays here: Tags and fused reporters may be left off the sequences shown.

The target of assay [1] is T1, MBP–RIF1_B (RIF1 aa1180–1270) (UniProt Q5UIP0).
T1 sequence: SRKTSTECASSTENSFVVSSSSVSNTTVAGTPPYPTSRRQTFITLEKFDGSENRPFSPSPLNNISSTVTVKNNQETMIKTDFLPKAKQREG
The assay can be described thus: pull-down; MBP pulldown: pDEST26–MBP–RIF1_B or pDEST26–MBP transfected into HEK293 suspension cells, lysate in NTEN buffer on amylose resin 4 °C 4 h, elution with maltose.

In a further assay the target is FLAG-tagged RIF1 (UniProt Q5UIP0). Briefly: co-IP; anti-FLAG M2 agarose IP from extracts of transfected HEK293 cells, NTEN lysis buffer (150 mM NaCl, 0.5% NP-40), 4 °C 4 h, elution with 3× Flag peptide, immunoblot; with/without bleomycin (20 μg/mL, 3 h); soluble and chromatin fractions. (In western blotting, separated proteins are transferred to a membrane and probed.)

A further assay concerns the target FLAG-tagged ASF1a (UniProt Q9Y294). Described as above.
The target in the next assay is FLAG-tagged ASF1b (UniProt Q9NVP2). The assay is described as above.
The target in another assay is ASF1a V94R (UniProt Q9Y294). The description is as above.

For the substance “ASF1a (endogenous, HEK293) (from UniProt Q9Y294 1-204)”, the binding entry (in assay [1]; with FLAG-tagged RIF1) was “binds” throughout.
On to “ASF1b (endogenous, HEK293) (from UniProt Q9NVP2 1-202)”, for which, in the assay with FLAG-tagged RIF1, the binding result is “binds”.
With “GFP-RIF1 wild-type (from UniProt Q5UIP0 1-2472)”, the binding result with FLAG-tagged ASF1a is given as “binds”.
The same measure, in the same setting: the entry for “HIRA (endogenous, HEK293) (from UniProt P54198 1-1017)” is “binds”.
Consider “RIF1 (endogenous, HEK293) (from UniProt Q5UIP0 1-2472)”, for which the binding result with FLAG-tagged ASF1a, in the assay with FLAG-tagged ASF1b and in the assay with ASF1a V94R was “binds” throughout.
